These are yes or no findings as the source states them, for the method shown. Some results given as binding are weak or reduced against the parent protein; the word gives no strength. Sequences can lack the tags named with a protein.
T1: Xrs2-FLAG (S. cerevisiae) (UniProt P33301)
T1 sequence: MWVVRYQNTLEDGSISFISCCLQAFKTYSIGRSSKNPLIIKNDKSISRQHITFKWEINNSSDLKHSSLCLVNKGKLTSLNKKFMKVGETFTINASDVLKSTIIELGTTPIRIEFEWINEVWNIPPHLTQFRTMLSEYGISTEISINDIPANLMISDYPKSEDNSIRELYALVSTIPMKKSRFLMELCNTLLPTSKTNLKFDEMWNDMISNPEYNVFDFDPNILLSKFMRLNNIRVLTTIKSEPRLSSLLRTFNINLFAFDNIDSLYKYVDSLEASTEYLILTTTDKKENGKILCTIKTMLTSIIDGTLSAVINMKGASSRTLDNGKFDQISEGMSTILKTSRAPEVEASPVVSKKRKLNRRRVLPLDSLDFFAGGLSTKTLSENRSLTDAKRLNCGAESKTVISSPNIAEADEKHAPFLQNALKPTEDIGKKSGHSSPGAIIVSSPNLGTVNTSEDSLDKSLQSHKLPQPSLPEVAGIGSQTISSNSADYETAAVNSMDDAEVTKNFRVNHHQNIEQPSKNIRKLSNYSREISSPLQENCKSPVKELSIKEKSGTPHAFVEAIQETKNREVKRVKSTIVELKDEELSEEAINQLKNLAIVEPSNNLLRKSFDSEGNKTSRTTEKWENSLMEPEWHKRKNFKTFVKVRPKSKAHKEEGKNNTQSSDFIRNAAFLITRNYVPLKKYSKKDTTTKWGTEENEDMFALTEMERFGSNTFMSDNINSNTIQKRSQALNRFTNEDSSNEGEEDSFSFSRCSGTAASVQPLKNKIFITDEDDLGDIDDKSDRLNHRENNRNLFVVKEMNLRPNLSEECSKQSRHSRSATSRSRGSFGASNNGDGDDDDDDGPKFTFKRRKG


Biological target: T1, Xrs2-FLAG (S. cerevisiae)
Assay: co-purification on anti-FLAG agarose; Sf9 cells co-infected with baculoviruses for Mre11-his6, Xrs2-FLAG and Rad50 WT or mutant; lysate at 0.5 M NaCl on anti-FLAG M2 agarose overnight at 4°C, washed 10x with 500 mM NaCl, eluted with 3xFLAG peptide in 250 mM NaCl; Coomassie-stained SDS-PAGE

Binder | binding
Rad50-K40A (in MRX-K40A) (protein, UniProt P12753 1-1312) MSAIYKLSIQGIRSFDSNDRETIEFGKPLTLIVGMNGSGATTIIECLKYATTGDLPPNSKGGVFIHDPKITGEKDIRAQVKLAFTSANGLNMIVTRNIQLLMKKTTTTFKTLEGQLVAINNSGDRSTLSTRSLELDAQVPLYLGVPKAILEYVIFCHQEDSLWPLSEPSNLKKKFDEIFQAMKFTKALDNLKSIKKDMSVDIKLLKQSVEHLKLDKDRSKAMKLNIHQLQTKIDQYNEEVSEIESQLNEITEKSDKLFKSNQDFQKILSKVENLKNTKLSISDQVKRLSNSIDILDLSKPDLQNLLANFSKVLMDKNNQLRDLETDISSLKDRQSSLQSLSNSLIRRQGELEAGKETYEKNRNHLSSLKEAFQHKFQGLSNIENSDMAQVNHEMSQFKAFISQDLTDTIDQFAKDIQLKETNLSDLIKSITVDSQNLEYNKKDRSKLIHDSEELAEKLKSFKSLSTQDSLNHELENLKTYKEKLQSWESENIIPKLNQKIEEKNNEMIILENQIEKFQDRIMKTNQQADLYAKLGLIKKSINTKLDELQKITEKLQNDSRIRQVFPLTQEFQRADLEMDFQKLFINMQKNIAINNKKMHELDRRYTNALYNLNTIEKDLQDNQKSKEKVIQLLSENLPEDCTIDEYNDVLEETELSYKTALENLKMHQTTLEFNRKALEIAERDSCCYLCSRKFENESFKSKLLQELKTKTDANFEKTLKDTVQNEKEYLHSLRLLEKHIITLNSINEKIDNSQKCLEKAKEETKTSKSKLDELEVDSTKLKDEKELAESEIRPLIEKFTYLEKELKDLENSSKTISEELSIYNTSEDGIQTVDELRDQQRKMNDSLRELRKTISDLQMEKDEKVRENSRMINLIKEKELTVSEIESSLTQKQNIDDSIRSKRENINDIDSRVKELEARIISLKNKKDEAQSVLDKVKNERDIQVRNKQKTVADINRLIDRFQTIYNEVVDFEAKGFDELQTTIKELELNKAQMLELKEQLDLKSNEVNEEKRKLADSNNEEKNLKQNLELIELKSQLQHIESEISRLDVQNAEAERDKYQEESLRLRTRFEKLSSENAGKLGEMKQLQNQIDSLTHQLRTDYKDIEKNYHKEWVELQTRSFVTDDIDVYSKALDSAIMKYHGLKMQDINRIIDELWKRTYSGTDIDTIKIRSDEVSSTVKGKSYNYRVVMYKQDVELDMRGRCSAGQKVLASIIIRLALSETFGANCGVIALDEPTTNLDEENIESLAKSLHNIINMRRHQKNFQLIVITHDEKFLGHMNAAAFTDHFFKVKRDDRQKSQIEWVDINRVTY | binds
Mre11-his6 (protein, UniProt P32829 1-692) MDYPDPDTIRILITTDNHVGYNENDPITGDDSWKTFHEVMMLAKNNNVDMVVQSGDLFHVNKPSKKSLYQVLKTLRLCCMGDKPCELELLSDPSQVFHYDEFTNVNYEDPNFNISIPVFGISGNHDDASGDSLLCPMDILHATGLINHFGKVIESDKIKVVPLLFQKGSTKLALYGLAAVRDERLFRTFKDGGVTFEVPTMREGEWFNLMCVHQNHTGHTNTAFLPEQFLPDFLDMVIWGHEHECIPNLVHNPIKNFDVLQPGSSVATSLCEAEAQPKYVFILDIKYGEAPKMTPIPLETIRTFKMKSISLQDVPHLRPHDKDATSKYLIEQVEEMIRDANEETKQKLADDGEGDMVAELPKPLIRLRVDYSAPSNTQSPIDYQVENPRRFSNRFVGRVANGNNVVQFYKKRSPVTRSKKSGINGTSISDRDVEKLFSESGGELEVQTLVNDLLNKMQLSLLPEVGLNEAVKKFVDKDEKTALKEFISHEISNEVGILSTNEEFLRTDDAEEMKALIKQVKRANSVRPTPPKENDETNFAFNGNGLDSFRSSNREVRTGSPDITQSHVDNESRITHISQAESSKPTSKPKRVRTATKKKIPAFSDSTVISDAENELGDNNDAQDDVDIDENDIIMVSTDEEDASYGLLNGRKTKTKTRPAASTKTASRRGKGRASRTPKTDILGSLLAKKRK | binds

Further lines, results first:

binding | Binder
binds | Rad50-L1240F-S343P (in MRX-L1240F-S343P from insect cells) (protein, UniProt P12753 1-1312) MSAIYKLSIQGIRSFDSNDRETIEFGKPLTLIVGMNGSGKTTIIECLKYATTGDLPPNSKGGVFIHDPKITGEKDIRAQVKLAFTSANGLNMIVTRNIQLLMKKTTTTFKTLEGQLVAINNSGDRSTLSTRSLELDAQVPLYLGVPKAILEYVIFCHQEDSLWPLSEPSNLKKKFDEIFQAMKFTKALDNLKSIKKDMSVDIKLLKQSVEHLKLDKDRSKAMKLNIHQLQTKIDQYNEEVSEIESQLNEITEKSDKLFKSNQDFQKILSKVENLKNTKLSISDQVKRLSNSIDILDLSKPDLQNLLANFSKVLMDKNNQLRDLETDISSLKDRQSSLQSLSNPLIRRQGELEAGKETYEKNRNHLSSLKEAFQHKFQGLSNIENSDMAQVNHEMSQFKAFISQDLTDTIDQFAKDIQLKETNLSDLIKSITVDSQNLEYNKKDRSKLIHDSEELAEKLKSFKSLSTQDSLNHELENLKTYKEKLQSWESENIIPKLNQKIEEKNNEMIILENQIEKFQDRIMKTNQQADLYAKLGLIKKSINTKLDELQKITEKLQNDSRIRQVFPLTQEFQRADLEMDFQKLFINMQKNIAINNKKMHELDRRYTNALYNLNTIEKDLQDNQKSKEKVIQLLSENLPEDCTIDEYNDVLEETELSYKTALENLKMHQTTLEFNRKALEIAERDSCCYLCSRKFENESFKSKLLQELKTKTDANFEKTLKDTVQNEKEYLHSLRLLEKHIITLNSINEKIDNSQKCLEKAKEETKTSKSKLDELEVDSTKLKDEKELAESEIRPLIEKFTYLEKELKDLENSSKTISEELSIYNTSEDGIQTVDELRDQQRKMNDSLRELRKTISDLQMEKDEKVRENSRMINLIKEKELTVSEIESSLTQKQNIDDSIRSKRENINDIDSRVKELEARIISLKNKKDEAQSVLDKVKNERDIQVRNKQKTVADINRLIDRFQTIYNEVVDFEAKGFDELQTTIKELELNKAQMLELKEQLDLKSNEVNEEKRKLADSNNEEKNLKQNLELIELKSQLQHIESEISRLDVQNAEAERDKYQEESLRLRTRFEKLSSENAGKLGEMKQLQNQIDSLTHQLRTDYKDIEKNYHKEWVELQTRSFVTDDIDVYSKALDSAIMKYHGLKMQDINRIIDELWKRTYSGTDIDTIKIRSDEVSSTVKGKSYNYRVVMYKQDVELDMRGRCSAGQKVLASIIIRLALSETFGANCGVIALDEPTTNFDEENIESLAKSLHNIINMRRHQKNFQLIVITHDEKFLGHMNAAAFTDHFFKVKRDDRQKSQIEWVDINRVTY
binds | Rad50-L1240F-I23V (in the Mre11 complex from insect cells) (protein, UniProt P12753 1-1312) MSAIYKLSIQGIRSFDSNDRETVEFGKPLTLIVGMNGSGKTTIIECLKYATTGDLPPNSKGGVFIHDPKITGEKDIRAQVKLAFTSANGLNMIVTRNIQLLMKKTTTTFKTLEGQLVAINNSGDRSTLSTRSLELDAQVPLYLGVPKAILEYVIFCHQEDSLWPLSEPSNLKKKFDEIFQAMKFTKALDNLKSIKKDMSVDIKLLKQSVEHLKLDKDRSKAMKLNIHQLQTKIDQYNEEVSEIESQLNEITEKSDKLFKSNQDFQKILSKVENLKNTKLSISDQVKRLSNSIDILDLSKPDLQNLLANFSKVLMDKNNQLRDLETDISSLKDRQSSLQSLSNSLIRRQGELEAGKETYEKNRNHLSSLKEAFQHKFQGLSNIENSDMAQVNHEMSQFKAFISQDLTDTIDQFAKDIQLKETNLSDLIKSITVDSQNLEYNKKDRSKLIHDSEELAEKLKSFKSLSTQDSLNHELENLKTYKEKLQSWESENIIPKLNQKIEEKNNEMIILENQIEKFQDRIMKTNQQADLYAKLGLIKKSINTKLDELQKITEKLQNDSRIRQVFPLTQEFQRADLEMDFQKLFINMQKNIAINNKKMHELDRRYTNALYNLNTIEKDLQDNQKSKEKVIQLLSENLPEDCTIDEYNDVLEETELSYKTALENLKMHQTTLEFNRKALEIAERDSCCYLCSRKFENESFKSKLLQELKTKTDANFEKTLKDTVQNEKEYLHSLRLLEKHIITLNSINEKIDNSQKCLEKAKEETKTSKSKLDELEVDSTKLKDEKELAESEIRPLIEKFTYLEKELKDLENSSKTISEELSIYNTSEDGIQTVDELRDQQRKMNDSLRELRKTISDLQMEKDEKVRENSRMINLIKEKELTVSEIESSLTQKQNIDDSIRSKRENINDIDSRVKELEARIISLKNKKDEAQSVLDKVKNERDIQVRNKQKTVADINRLIDRFQTIYNEVVDFEAKGFDELQTTIKELELNKAQMLELKEQLDLKSNEVNEEKRKLADSNNEEKNLKQNLELIELKSQLQHIESEISRLDVQNAEAERDKYQEESLRLRTRFEKLSSENAGKLGEMKQLQNQIDSLTHQLRTDYKDIEKNYHKEWVELQTRSFVTDDIDVYSKALDSAIMKYHGLKMQDINRIIDELWKRTYSGTDIDTIKIRSDEVSSTVKGKSYNYRVVMYKQDVELDMRGRCSAGQKVLASIIIRLALSETFGANCGVIALDEPTTNFDEENIESLAKSLHNIINMRRHQKNFQLIVITHDEKFLGHMNAAAFTDHFFKVKRDDRQKSQIEWVDINRVTY
